According to the supplement of paper PMC10849652:
The list shows a part of the results.

Protein sequences, listed by entry. Tags and fused reporters are not part of them. Lines headed by an entry give the natural chain unless they say otherwise; changes in a name come on top.
UniProt P61225: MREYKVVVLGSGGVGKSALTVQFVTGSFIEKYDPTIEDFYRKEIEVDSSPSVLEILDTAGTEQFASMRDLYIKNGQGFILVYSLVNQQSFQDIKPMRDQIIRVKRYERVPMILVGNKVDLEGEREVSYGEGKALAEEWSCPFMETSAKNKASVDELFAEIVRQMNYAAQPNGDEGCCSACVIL
UniProt Q96I23: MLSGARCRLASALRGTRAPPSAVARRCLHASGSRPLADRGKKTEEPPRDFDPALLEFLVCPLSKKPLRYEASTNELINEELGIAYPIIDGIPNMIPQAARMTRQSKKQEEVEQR
UniProt P11233: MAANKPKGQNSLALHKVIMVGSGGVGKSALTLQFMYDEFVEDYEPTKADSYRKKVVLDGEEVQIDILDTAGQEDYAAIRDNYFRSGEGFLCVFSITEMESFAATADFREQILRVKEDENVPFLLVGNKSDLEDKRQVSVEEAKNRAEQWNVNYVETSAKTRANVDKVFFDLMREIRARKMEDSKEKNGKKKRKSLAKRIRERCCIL
UniProt Q9H0U4: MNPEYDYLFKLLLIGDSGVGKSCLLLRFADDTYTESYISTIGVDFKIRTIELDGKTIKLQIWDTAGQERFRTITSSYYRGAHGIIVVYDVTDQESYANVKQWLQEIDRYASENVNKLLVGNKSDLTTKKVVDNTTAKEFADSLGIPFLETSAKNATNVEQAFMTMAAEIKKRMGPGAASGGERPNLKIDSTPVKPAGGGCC
UniProt Q969Q5: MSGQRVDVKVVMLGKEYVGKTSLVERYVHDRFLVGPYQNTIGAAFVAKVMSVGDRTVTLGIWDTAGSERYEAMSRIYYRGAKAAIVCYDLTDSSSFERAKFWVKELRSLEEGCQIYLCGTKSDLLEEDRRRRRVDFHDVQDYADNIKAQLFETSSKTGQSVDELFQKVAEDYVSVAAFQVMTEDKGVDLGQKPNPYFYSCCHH
UniProt P54725: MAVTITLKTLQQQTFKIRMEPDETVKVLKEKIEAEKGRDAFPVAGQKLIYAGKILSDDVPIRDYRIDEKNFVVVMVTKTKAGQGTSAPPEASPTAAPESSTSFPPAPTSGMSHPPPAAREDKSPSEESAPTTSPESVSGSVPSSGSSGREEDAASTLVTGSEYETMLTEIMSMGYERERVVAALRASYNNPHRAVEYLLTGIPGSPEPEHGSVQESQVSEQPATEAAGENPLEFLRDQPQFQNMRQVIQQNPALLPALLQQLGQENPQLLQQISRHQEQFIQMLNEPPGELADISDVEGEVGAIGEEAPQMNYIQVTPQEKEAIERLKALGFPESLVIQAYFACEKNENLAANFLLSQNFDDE
UniProt Q2TAL8: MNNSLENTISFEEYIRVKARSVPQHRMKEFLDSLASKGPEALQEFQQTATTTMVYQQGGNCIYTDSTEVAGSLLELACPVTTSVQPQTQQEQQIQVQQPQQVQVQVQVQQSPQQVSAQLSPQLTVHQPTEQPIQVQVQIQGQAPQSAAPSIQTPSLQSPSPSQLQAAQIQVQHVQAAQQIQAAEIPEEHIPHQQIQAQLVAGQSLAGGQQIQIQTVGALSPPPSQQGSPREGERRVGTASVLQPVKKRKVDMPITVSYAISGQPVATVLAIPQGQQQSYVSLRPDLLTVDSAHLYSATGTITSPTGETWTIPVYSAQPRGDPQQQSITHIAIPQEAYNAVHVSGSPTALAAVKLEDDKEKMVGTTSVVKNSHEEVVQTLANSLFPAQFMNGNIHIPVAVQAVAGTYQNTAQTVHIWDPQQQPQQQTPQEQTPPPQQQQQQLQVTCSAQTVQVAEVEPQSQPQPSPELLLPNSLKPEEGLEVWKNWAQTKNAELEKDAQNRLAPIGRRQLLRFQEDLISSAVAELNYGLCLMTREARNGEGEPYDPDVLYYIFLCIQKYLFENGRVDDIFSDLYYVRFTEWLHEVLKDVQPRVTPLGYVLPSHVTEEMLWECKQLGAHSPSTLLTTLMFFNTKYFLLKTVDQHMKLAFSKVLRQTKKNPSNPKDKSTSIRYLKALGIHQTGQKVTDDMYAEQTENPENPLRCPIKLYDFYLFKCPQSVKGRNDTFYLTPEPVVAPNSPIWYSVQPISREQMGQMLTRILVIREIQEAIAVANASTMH
UniProt Q7Z6M1: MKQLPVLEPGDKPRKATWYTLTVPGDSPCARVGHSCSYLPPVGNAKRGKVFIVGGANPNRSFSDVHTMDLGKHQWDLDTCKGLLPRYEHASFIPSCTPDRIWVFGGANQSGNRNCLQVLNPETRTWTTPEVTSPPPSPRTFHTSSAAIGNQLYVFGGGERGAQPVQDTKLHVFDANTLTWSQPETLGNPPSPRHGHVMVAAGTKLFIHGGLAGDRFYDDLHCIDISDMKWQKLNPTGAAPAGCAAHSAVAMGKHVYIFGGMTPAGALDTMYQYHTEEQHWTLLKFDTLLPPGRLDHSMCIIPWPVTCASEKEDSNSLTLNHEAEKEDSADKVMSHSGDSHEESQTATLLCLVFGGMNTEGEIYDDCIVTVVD
UniProt P47736: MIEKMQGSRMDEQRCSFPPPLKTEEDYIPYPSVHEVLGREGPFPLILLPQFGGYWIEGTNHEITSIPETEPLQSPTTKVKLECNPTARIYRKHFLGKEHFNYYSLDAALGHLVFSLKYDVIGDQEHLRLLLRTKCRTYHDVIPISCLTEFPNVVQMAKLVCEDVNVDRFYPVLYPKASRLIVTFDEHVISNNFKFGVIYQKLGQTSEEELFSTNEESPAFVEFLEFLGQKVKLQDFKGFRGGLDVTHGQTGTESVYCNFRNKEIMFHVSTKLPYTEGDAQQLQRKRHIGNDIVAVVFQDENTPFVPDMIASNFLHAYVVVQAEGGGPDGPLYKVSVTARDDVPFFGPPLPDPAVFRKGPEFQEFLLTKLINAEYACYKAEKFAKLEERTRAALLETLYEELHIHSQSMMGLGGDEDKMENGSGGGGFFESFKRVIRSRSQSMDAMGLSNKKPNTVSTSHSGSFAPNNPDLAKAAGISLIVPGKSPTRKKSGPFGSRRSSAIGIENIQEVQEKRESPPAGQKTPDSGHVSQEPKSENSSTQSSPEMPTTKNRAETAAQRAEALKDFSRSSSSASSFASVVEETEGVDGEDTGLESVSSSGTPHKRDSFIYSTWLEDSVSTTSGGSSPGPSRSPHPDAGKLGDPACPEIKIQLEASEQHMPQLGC
UniProt Q9BTL3: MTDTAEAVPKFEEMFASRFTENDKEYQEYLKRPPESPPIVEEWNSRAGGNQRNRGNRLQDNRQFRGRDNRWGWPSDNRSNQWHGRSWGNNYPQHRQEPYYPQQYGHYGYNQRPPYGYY
UniProt P49792, whole entry, looked up: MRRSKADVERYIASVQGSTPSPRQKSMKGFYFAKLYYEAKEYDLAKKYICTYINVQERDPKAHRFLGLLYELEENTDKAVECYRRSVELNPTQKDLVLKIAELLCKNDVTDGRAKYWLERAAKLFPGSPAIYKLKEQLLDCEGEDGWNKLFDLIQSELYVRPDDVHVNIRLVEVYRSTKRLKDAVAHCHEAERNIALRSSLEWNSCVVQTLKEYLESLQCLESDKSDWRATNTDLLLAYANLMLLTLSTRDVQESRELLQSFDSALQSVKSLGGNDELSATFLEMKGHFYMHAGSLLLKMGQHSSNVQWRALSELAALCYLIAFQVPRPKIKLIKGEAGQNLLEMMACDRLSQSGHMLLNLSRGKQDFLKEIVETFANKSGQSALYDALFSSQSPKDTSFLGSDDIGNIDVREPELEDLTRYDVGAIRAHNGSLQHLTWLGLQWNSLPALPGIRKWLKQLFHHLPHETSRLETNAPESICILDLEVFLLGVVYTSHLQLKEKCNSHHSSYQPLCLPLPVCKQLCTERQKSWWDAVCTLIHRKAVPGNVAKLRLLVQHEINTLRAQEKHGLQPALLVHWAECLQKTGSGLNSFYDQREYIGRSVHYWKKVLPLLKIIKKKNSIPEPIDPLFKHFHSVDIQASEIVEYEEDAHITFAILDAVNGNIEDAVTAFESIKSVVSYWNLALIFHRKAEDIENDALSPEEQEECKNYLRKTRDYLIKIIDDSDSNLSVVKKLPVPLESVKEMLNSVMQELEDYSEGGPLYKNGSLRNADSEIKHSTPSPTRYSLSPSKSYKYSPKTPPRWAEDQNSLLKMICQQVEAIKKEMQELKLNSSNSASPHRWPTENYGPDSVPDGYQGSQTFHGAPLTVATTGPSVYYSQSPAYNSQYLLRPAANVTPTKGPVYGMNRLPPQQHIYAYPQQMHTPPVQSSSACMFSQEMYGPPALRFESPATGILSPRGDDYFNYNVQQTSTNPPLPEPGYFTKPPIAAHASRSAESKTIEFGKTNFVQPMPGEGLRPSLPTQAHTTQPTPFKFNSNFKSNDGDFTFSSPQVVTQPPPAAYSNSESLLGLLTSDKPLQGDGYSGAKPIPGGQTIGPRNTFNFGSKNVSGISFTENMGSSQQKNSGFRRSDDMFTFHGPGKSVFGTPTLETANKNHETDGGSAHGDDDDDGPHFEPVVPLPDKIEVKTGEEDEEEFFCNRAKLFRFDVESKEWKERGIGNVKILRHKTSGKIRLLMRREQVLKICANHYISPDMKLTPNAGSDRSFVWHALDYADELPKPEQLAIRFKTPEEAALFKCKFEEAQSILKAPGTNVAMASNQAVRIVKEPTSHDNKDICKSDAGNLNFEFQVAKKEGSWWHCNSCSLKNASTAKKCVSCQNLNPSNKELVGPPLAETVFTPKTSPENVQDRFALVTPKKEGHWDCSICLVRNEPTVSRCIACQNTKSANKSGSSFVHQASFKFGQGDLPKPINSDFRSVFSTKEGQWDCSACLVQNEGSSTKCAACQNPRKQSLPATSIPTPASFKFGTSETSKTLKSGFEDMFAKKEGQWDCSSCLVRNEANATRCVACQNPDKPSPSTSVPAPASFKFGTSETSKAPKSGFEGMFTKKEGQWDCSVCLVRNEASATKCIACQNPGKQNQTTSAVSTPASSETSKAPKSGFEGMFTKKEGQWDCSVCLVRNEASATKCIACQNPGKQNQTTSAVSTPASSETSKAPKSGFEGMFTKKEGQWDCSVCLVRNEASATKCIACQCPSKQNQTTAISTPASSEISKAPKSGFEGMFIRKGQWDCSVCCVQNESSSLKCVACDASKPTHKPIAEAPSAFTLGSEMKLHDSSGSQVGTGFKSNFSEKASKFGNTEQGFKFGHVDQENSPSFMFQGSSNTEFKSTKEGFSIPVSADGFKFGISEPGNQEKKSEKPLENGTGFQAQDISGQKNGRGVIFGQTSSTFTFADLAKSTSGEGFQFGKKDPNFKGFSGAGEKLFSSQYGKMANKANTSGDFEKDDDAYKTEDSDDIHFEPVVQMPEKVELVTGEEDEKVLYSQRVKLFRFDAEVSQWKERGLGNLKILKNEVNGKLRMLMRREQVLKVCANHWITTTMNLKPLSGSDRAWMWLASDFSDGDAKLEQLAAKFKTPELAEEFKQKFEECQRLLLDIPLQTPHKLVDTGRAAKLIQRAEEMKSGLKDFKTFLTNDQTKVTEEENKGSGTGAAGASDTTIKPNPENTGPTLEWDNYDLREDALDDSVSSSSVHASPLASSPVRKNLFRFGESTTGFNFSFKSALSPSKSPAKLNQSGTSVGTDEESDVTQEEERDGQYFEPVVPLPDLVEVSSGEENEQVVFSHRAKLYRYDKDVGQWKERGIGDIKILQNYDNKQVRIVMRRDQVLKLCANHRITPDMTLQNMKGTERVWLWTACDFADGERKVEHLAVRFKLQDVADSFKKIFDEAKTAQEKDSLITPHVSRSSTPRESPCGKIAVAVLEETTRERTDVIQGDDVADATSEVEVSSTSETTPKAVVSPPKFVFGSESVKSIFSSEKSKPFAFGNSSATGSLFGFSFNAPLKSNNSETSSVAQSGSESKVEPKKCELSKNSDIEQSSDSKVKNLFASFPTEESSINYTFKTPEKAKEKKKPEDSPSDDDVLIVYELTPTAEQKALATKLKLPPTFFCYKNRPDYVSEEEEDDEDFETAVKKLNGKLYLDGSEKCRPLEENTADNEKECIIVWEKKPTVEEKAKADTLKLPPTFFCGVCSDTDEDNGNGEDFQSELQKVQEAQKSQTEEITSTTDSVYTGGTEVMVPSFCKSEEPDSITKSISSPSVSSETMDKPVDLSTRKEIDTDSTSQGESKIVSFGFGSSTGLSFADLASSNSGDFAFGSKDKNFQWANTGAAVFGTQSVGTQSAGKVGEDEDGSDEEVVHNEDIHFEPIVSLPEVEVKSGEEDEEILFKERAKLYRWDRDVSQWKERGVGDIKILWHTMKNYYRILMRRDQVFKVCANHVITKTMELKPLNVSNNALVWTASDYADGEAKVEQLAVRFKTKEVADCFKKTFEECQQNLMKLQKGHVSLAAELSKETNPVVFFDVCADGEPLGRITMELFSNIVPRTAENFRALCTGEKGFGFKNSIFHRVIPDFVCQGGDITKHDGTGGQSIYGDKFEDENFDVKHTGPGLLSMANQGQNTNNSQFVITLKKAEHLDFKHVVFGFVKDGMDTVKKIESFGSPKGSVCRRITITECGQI

Key:
Assay in all cases: log2 fold change, soluble protein after heating vs DMSO (PISA); higher = thermal stabilisation; K562 lysate, 10 uM; active = over 0.2 and 3.5 SD of the protein, either way, in both replicates (recomputed)
ibrutinib = compound: C=CC(=O)N1CCC[C@@H](n2nc(-c3ccc(Oc4ccccc4)cc3)c3c(N)ncnc32)C1 [ibrutinib]
How it was run: (§1)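 Following dounce homogenisation of K562 pellets in PBS pH 7.4 with 1 mM MgCl2, crude extract at 1 mg/mL protein was incubated for 30 min with 10 μM compound. Aliquots were then heated for 3 min over 48°C-58°C and pooled, NP-40 was added to 0.5% at 4°C, and soluble protein was recovered as the supernatant at 21,000xg for 90 min. Channel-sum-equalised TMTpro 16plex LC-MS/MS quantified this protein. Each value, from duplicates, is a log-two fold change in thermal stability relative to solvent controls.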

[1] = compound: CC(=O)c1cnc2ccc(-c3cc(Cl)c(O)c(Cl)c3)nc2c1N[C@H]1CC[C@H](CN(C)C)CC1
How it was run: as §1

ralimetinib = compound: CC(C)(C)Cn1c(N)nc2ccc(-c3[nH]c(C(C)(C)C)nc3-c3ccc(F)cc3)nc21 [ralimetinib]
How it was run: as §1

[2] = compound: CC(C)(O)CC(=O)NCCn1ccc2ncnc(Nc3ccc(Oc4cccc(C(F)(F)F)c4)c(Cl)c3)c21
How it was run: as §1

[3] = compound: CC(C)C1=C2N=C(C=C(N2N=C1)NCC3=CC=CC=C3)NCCCCCCN
How it was run: as §1

[4] = compound: CC1=C(C(CC(=O)N1)C2=CC=C(C=C2)C(F)(F)F)C(=O)NC3=C(C=C4C(=C3)C=NN4)F
How it was run: as §1

[5] = compound: CC1=C(C2=C(C=C1)C(=O)C3=CC=CC=C3N2CCCN)C
How it was run: as §1

[6] = compound: CC1=C(C=C(C=C1)NC(=O)C2=CC(=CC=C2)C(C)(C)C#N)NC3=CC4=C(C=C3)N=CN(C4=O)C
How it was run: as §1

[7] = compound: CC1=C(C=C(C=C1)NC(=O)C2=CC(=CC=C2)N(C)C)NC(=O)C3=CC=C(C=C3)O
How it was run: as §1

[8] = compound: CC1=CC=C(C=C1)SC2=C3C=C(SC3=CN=C2)C(=O)N
How it was run: as §1

Measured: log2 fold change

RAD9A (UniProt Q99638)
inactive: ibrutinib 0.027 | [1] -0.004 | ralimetinib 0.062 | [2] -0.04 | [3] -0.025 | [4] -0.054 | [5] -0.042 | [6] 0.018 | [7] 0.006 | [8] -0.005

RABGAP1L isoform 5 (UniProt Q5R372)
inactive: ibrutinib 0.021 | [1] -0.069 | ralimetinib -0.012 | [2] -0.109 | [3] -0.097 | [4] -0.021 | [5] -0.009 | [6] 0.023 | [7] 0.024 | [8] -0.033

RAB14 (UniProt P61106)
inactive: ibrutinib -0.018 | [1] 0 | ralimetinib -0.008 | [2] 0.004 | [3] 0.014 | [4] 0.018 | [5] 0.02 | [6] 0.058 | [7] -0.019 | [8] -0.013

RAP2B (UniProt P61225)
inactive: ibrutinib 0.02 | [1] -0.006 | ralimetinib -0.008 | [2] 0.042 | [3] -0.017 | [4] 0.03 | [5] -0.03 | [6] 0.015 | [7] -0.004 | [8] -0.029

PYURF (UniProt Q96I23)
inactive: ibrutinib 0.189 | [1] -0.026 | ralimetinib -0.005 | [2] 0.079 | [3] 0.016 | [4] 0.058 | [5] -0.05 | [6] 0.084 | [7] 0.012 | [8] -0.026

RAC1 isoform 2 (UniProt P63000)
inactive: ibrutinib 0.103 | [1] 0.034 | ralimetinib 0 | [2] 0.104 | [3] -0.016 | [4] -0.018 | [5] -0.017 | [6] -0.086 | [7] -0.038 | [8] 0.039

RALA (UniProt P11233)
inactive: ibrutinib 0.009 | [1] -0.01 | ralimetinib 0.006 | [2] -0.05 | [3] 0.034 | [4] -0.002 | [5] -0.001 | [6] 0.057 | [7] -0.048 | [8] -0.023

RAB1B (UniProt Q9H0U4)
inactive: ibrutinib -0.011 | [1] -0.01 | ralimetinib -0.014 | [2] -0.012 | [3] -0.006 | [4] 0.02 | [5] -0.014 | [6] -0.036 | [7] -0.011 | [8] -0.006

RAB4A (UniProt P20338)
inactive: ibrutinib 0.094 | [1] 0.005 | ralimetinib -0.007 | [2] -0.026 | [3] -0.016 | [4] 0.016 | [5] -0.03 | [6] -0.027 | [7] 0 | [8] 0.023

RAB24 (UniProt Q969Q5)
inactive: ibrutinib 0.007 | [1] 0.017 | ralimetinib -0.011 | [2] 0.01 | [3] -0.005 | [4] 0.028 | [5] -0.012 | [6] 0.024 | [7] -0.019 | [8] 0.036

RABL3 (UniProt Q5HYI8)
inactive: ibrutinib 0.017 | [1] 0.014 | ralimetinib 0.153 | [2] -0.05 | [3] -0.047 | [4] 0.021 | [5] -0.043 | [6] 0.003 | [7] -0.141 | [8] 0.014

RABGAP1L isoform 3 (UniProt Q5R372)
inactive: ibrutinib 0.05 | [1] 0.01 | ralimetinib 0.057 | [2] 0.019 | [3] -0.019 | [4] 0.004 | [5] -0.03 | [6] 0.019 | [7] -0.004 | [8] 0.024

RAB1A (UniProt P62820)
inactive: ibrutinib -0.012 | [1] 0 | ralimetinib 0 | [2] 0.03 | [3] 0.011 | [4] 0.053 | [5] 0.026 | [6] 0 | [7] -0.01 | [8] 0

RAB27A (UniProt P51159)
inactive: ibrutinib -0.011 | [1] -0.035 | ralimetinib 0.074 | [2] 0.033 | [3] -0.054 | [4] -0.044 | [5] 0.047 | [6] -0.057 | [7] 0.006 | [8] -0.026

RAD23A (UniProt P54725)
inactive: ibrutinib 0.06 | [1] -0.01 | ralimetinib 0.057 | [2] 0.037 | [3] -0.045 | [4] 0.009 | [5] 0.027 | [6] 0.007 | [7] 0.018 | [8] -0.005

QRICH1 (UniProt Q2TAL8)
inactive: ibrutinib -0.01 | [1] 0.027 | ralimetinib 0.043 | [2] -0.015 | [3] -0.007 | [4] -0.004 | [5] 0.049 | [6] -0.043 | [7] 0.01 | [8] 0.04

RAB13 (UniProt P51153)
inactive: ibrutinib 0.017 | [1] 0.114 | ralimetinib 0.065 | [2] 0.091 | [3] -0.02 | [4] 0 | [5] 0.05 | [6] -0.223 | [7] 0.002 | [8] 0.085

RABEPK (UniProt Q7Z6M1)
inactive: ibrutinib 0 | [1] -0.002 | ralimetinib 0.01 | [2] -0.006 | [3] 0.018 | [4] -0.009 | [5] -0.007 | [6] 0.008 | [7] 0.001 | [8] 0

RAP1GAP isoform 4 (UniProt P47736)
inactive: ibrutinib -0.024 | [1] 0.018 | ralimetinib 0.068 | [2] -0.037 | [3] 0.051 | [4] 0.003 | [5] -0.008 | [6] 0.056 | [7] -0.009 | [8] -0.012

RAMAC (UniProt Q9BTL3)
inactive: ibrutinib 0.028 | [1] -0.025 | ralimetinib -0.053 | [2] -0.073 | [3] 0.002 | [4] 0.005 | [5] 0 | [6] -0.01 | [7] -0.03 | [8] 0.026

Random excerpt: 2 entries already listed, in no set order.
QRICH1 (UniProt Q2TAL8)
inactive: ibrutinib -0.01 | [1] 0.027 | ralimetinib 0.043 | [2] -0.015 | [3] -0.007 | [4] -0.004 | [5] 0.049 | [6] -0.043 | [7] 0.01 | [8] 0.04

RABEPK (UniProt Q7Z6M1)
inactive: ibrutinib 0 | [1] -0.002 | ralimetinib 0.01 | [2] -0.006 | [3] 0.018 | [4] -0.009 | [5] -0.007 | [6] 0.008 | [7] 0.001 | [8] 0

(list continues)

PYCR2 (UniProt Q96C36)
inactive: ibrutinib 0.012 | [1] 0.002 | ralimetinib -0.007 | [2] -0.032 | [3] -0.007 | [4] -0.026 | [5] 0.001 | [6] 0.013 | [7] -0.017 | [8] -0.016

RAPGEF2, A0A2R8YGD3
inactive: ibrutinib -0.059 | [1] 0.007 | ralimetinib 0.008 | [2] -0.037 | [3] 0.008 | [4] 0.054 | [5] -0.07 | [6] 0.025 | [7] -0.025 | [8] 0.023

RALY (UniProt Q9UKM9)
inactive: ibrutinib -0.013 | [1] -0.04 | ralimetinib 0.003 | [2] -0.023 | [3] 0.01 | [4] 0.051 | [5] -0.032 | [6] -0.02 | [7] 0.029 | [8] -0.015

RALGAPB (UniProt Q86X10)
inactive: ibrutinib 0.066 | [1] -0.002 | ralimetinib 0.033 | [2] -0.038 | [3] 0.003 | [4] -0.048 | [5] 0.029 | [6] 0.065 | [7] 0.032 | [8] 0.01

RAP1A (UniProt P62834)
inactive: ibrutinib -0.009 | [1] 0.024 | ralimetinib -0.004 | [2] 0.002 | [3] -0.011 | [4] 0.019 | [5] 0.001 | [6] 0.002 | [7] -0.029 | [8] 0.002

PYCARD (UniProt Q9ULZ3)
inactive: ibrutinib 0.091 | [1] -0.007 | ralimetinib -0.005 | [2] -0.005 | [3] -0.007 | [4] 0 | [5] -0.019 | [6] -0.019 | [7] 0.007 | [8] -0.019

RAP1GDS1 isoform 5 (UniProt P52306)
inactive: ibrutinib 0.018 | [1] 0.018 | ralimetinib 0.026 | [2] -0.005 | [3] -0.009 | [4] -0.019 | [5] -0.006 | [6] -0.031 | [7] 0.02 | [8] -0.003

PYGB (UniProt P11216)
inactive: ibrutinib -0.004 | [1] 0.004 | ralimetinib 0.032 | [2] 0.005 | [3] -0.008 | [4] 0.005 | [5] 0.018 | [6] 0.014 | [7] 0.014 | [8] -0.017

RANBP2 (UniProt P49792)
inactive: ibrutinib 0.001 | [1] -0.01 | ralimetinib 0.018 | [2] -0.009 | [3] -0.01 | [4] 0.011 | [5] 0.007 | [6] 0 | [7] 0.018 | [8] -0.001
